The target of assay [1] is integrin β3 subunit (human (endogenous in human platelets)) (UniProt P05106). Kind of assay: co-IP; human platelets (5 × 10^8/mL) pretreated with MB2mP6 or control peptide HLPN (50 μM), stimulated with thrombin (0.025 U/mL) for various times, lysed in NP40 lysis buffer; precipitated with mouse anti-integrin β3 antibody M15 overnight at 4 °C and protein A/G agarose; blots for β3 and Gα13.

By UniProt entry, the sequences of proteins in these tests, tags left out. Residues count along the entry.
UniProt P05106, residues 27-788: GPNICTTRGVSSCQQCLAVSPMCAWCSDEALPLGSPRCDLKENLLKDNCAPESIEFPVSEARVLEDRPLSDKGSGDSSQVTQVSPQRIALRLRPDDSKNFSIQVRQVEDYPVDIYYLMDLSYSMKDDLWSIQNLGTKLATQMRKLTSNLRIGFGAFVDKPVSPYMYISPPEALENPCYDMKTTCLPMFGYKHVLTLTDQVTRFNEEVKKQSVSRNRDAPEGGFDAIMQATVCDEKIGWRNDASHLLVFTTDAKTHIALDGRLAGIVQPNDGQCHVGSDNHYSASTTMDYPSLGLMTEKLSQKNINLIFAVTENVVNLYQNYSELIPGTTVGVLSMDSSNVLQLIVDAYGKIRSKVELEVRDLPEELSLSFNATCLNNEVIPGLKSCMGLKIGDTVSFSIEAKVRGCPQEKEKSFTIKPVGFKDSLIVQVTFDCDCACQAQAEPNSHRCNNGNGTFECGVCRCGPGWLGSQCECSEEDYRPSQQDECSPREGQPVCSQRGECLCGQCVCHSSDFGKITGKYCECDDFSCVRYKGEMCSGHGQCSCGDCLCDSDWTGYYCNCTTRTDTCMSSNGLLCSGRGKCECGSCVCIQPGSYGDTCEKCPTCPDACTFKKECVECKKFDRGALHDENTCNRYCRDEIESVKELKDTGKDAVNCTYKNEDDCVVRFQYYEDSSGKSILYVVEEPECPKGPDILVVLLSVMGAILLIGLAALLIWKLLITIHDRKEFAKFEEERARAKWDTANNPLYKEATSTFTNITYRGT
UniProt P05107, residues 23-769: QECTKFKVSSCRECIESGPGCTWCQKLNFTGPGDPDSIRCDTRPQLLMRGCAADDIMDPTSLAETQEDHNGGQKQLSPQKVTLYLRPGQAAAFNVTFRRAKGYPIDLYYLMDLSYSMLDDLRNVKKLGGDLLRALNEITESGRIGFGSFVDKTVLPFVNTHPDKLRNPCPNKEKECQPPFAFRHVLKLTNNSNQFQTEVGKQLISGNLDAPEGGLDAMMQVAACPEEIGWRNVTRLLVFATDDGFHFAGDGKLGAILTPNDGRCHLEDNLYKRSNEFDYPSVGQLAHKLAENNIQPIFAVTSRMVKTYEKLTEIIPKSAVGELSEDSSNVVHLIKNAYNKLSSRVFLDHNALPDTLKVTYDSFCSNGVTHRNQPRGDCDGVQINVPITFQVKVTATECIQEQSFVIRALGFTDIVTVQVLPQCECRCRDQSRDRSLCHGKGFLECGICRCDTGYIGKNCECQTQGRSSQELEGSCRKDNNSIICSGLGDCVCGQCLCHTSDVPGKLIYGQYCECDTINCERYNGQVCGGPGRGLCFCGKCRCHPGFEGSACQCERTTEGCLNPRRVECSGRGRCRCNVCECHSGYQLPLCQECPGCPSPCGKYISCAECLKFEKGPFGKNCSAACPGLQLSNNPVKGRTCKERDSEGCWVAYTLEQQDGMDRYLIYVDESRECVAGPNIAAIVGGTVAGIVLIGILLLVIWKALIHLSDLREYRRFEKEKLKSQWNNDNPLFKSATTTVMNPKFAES
UniProt Q14344: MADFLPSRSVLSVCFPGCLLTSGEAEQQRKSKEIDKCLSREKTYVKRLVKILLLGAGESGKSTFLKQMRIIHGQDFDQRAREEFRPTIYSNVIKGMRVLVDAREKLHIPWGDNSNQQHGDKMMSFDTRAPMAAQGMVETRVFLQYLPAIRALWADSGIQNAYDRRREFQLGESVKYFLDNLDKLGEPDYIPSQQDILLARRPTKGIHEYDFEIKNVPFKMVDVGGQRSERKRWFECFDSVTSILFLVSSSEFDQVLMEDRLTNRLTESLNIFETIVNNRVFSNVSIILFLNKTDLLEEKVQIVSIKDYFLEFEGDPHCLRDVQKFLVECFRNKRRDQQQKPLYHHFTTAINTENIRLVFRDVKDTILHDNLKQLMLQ

The target in assay [2] is integrin β2 subunit (human (endogenous in THP-1)) (UniProt P05107). Kind of assay: co-IP; PMA-differentiated THP-1 macrophages pretreated with MB2mP6 or control peptide HLPN (50 μM), stimulated with LPS (100 ng/mL) for various times, lysed in NP40 lysis buffer; precipitated with mouse anti-integrin β2 antibody 1.BB.246 overnight at 4 °C and protein A/G agarose; blots for β2 and Gα13.

In assay [3] the target is Gα13 (human (endogenous in THP-1 cells and human platelets)) (UniProt Q14344). The assay can be described thus: co-IP; synthetic MB2mP6 in HLPN (50 μM) given to THP-1-derived macrophages before LPS and lysis; read-out: less Gα13 in the anti-β2 immunoprecipitate than with scrambled peptide; only the binder purified.

These are yes or no findings as the source states them, for the method shown. In cells and extracts the contact can be indirect. Some entries that bind do so weakly or less than the wild type.

This note sets out measurements from PMC8159967.

As to Gα13 (from UniProt Q14344 1-377), the binding result in assay [1] and in assay [2] was “binds” throughout.

Consider FEKEKL (Myr- on the N-terminus (Myr-FEKEKL)) [MB2mP6 (Myr-FEKEKL)], for which, in assay [3], the binding entry is listed as “binds”.
